No constants are given. Whether binding was seen depends on the method and setting. Tags and fused reporters may be left off the sequences shown.
T1: GST-MANF fusion protein (UniProt P55145)
T1 sequence: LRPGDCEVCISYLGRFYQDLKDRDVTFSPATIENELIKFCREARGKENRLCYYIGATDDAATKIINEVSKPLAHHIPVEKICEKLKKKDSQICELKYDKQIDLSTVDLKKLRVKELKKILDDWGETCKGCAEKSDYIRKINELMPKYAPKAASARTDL


Experiments:
GST-MANF fusion protein = molecular target: T1, GST-MANF fusion protein; assay: pull-down; GST-tag fusion protein immobilised on glutathione Sepharose beads, purified His-tag protein added, 4 °C; GST as negative control; Coomassie staining and immunoblotting; both purified
[1] = molecular target: GST-LRP5-C fusion protein (intracellular domain of LRP5); assay: as above

| binding (GST-MANF fusion protein) | binding [1] | Molecule |
| --- | --- | --- |
| no binding |  | His-LRP5-C fusion protein (intracellular domain of LRP5) (domain or fragment) |
|  | no binding | His-MANF fusion protein (protein, UniProt P55145 25-182) LRPGDCEVCISYLGRFYQDLKDRDVTFSPATIENELIKFCREARGKENRLCYYIGATDDAATKIINEVSKPLAHHIPVEKICEKLKKKDSQICELKYDKQIDLSTVDLKKLRVKELKKILDDWGETCKGCAEKSDYIRKINELMPKYAPKAASARTDL |

— PMC11408687
